Results: paper PMC7593309
The comparison behind a weaker result is the experiment's own reference, which may not be listed here.

By UniProt entry, the sequences of proteins in these tests, tags left out.
UniProt Q9LSX0, whole entry W23A: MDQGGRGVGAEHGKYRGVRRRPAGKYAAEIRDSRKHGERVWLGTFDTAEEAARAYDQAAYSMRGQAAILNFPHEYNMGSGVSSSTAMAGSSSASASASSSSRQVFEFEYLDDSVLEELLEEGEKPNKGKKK

Target: AtERF96 W23A (Arabidopsis thaliana) (UniProt Q9LSX0)
Assay: EMSA
Settings: fEMSA: 30 mM HEPES pH 7.4, 62.5 mM NaCl, 5% glycerol, 30 min RT, gel at 4 C; recombinant protein; residues 1-131; protein details: N-terminal 6xHis (pET28a); label: 5'-fluorescein on forward strand

TAGCCGCCAGC (double strand) [GCC11 probe (fEMSA)]
binding result: binds more weakly
